Out of some 320,000 compounds screened, about 620 (0.19%) were called active. Inconclusive results, whose numbers are uncertain, are shown with a selection of clear calls. Cut-off read from the data, not from the text of the source: active = activation above about 80%; inconclusive = between about 30% and that limit; inactive = weaker than that.
The compounds below were run against Transient receptor potential cation channel subfamily V member 1 (Homo sapiens) (UniProt Q8NER1) (assay: HTS Assay for Compounds that Act as Agonists of the Vanilloid Receptor 1). Settings: TRPV1-expressing cells, Fluo-8 calcium influx, agonist mode; at 8.33 µM, stronger effect = higher value.
Summary of the method: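 Cells expressing TRPV1 were dye-loaded with Fluo-8 and read kinetically: 10 s baseline, 3 min after compound (agonist portion), then 2 min after EC20 capsaicin (allosteric enhancer portion). Calcium-bound dye fluorescence at 480/520 nm.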
Note: 0% is about no effect.

Chains of the proteins cited; added tags and fusions are not shown.
UniProt Q8NER1, whole entry, looked up: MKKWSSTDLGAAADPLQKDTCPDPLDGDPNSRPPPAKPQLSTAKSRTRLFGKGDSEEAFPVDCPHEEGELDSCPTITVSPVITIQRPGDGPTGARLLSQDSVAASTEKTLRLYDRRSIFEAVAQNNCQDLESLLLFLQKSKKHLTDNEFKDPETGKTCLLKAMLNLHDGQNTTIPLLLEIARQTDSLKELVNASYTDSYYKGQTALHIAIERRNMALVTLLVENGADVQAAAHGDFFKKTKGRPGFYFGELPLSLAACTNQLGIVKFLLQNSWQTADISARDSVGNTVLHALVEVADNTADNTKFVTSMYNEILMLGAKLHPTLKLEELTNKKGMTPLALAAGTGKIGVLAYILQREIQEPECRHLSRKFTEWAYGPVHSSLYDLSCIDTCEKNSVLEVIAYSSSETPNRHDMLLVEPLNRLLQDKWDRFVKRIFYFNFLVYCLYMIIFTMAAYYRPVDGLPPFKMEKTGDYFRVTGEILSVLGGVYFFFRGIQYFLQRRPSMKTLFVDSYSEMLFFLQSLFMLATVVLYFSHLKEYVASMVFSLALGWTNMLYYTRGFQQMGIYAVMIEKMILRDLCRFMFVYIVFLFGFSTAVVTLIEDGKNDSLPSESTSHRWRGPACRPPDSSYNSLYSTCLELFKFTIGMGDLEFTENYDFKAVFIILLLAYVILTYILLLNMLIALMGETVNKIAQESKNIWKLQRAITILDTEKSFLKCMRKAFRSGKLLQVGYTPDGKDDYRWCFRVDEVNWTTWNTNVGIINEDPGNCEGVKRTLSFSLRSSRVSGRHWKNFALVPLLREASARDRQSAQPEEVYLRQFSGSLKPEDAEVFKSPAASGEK

Structure (SMILES) | activation
Cc1nc(N2CCOCC2)nc(OC(C)C)c1[N+](=O)[O-] | inactive: 4.27%
Cc1ccc(C(=O)NC(=S)N(C)C2CCCCC2)cc1 | inconclusive: 57%
O=C(NC1CCCC1)c1ccccc1OCc1ccccc1 | inconclusive: 55.6%
CN(C)c1cc(-c2ccc(Cl)c(Cl)c2)oc(=O)c1Cl | inconclusive: 31.8%
CC(Sc1nn(-c2ccccc2)c(=S)s1)C(=O)NCC1CCCO1 (stereo not drawn) | inconclusive: 42.6%
Cc1ccc2nc3c(cc(C(=O)NC4CCS(=O)(=O)C4)n3Cc3ccccc3)c(=O)n2c1 (stereo not drawn) | inactive: 3.33%
O=C(Nc1cccc2cccnc12)c1ccc2c(c1)OCCO2 | inconclusive: 43.8%
COc1ccc(NS(=O)(=O)c2cc(NC(=O)c3ccncc3)ccc2N2CCOCC2)cc1 | inconclusive: 35.6%
Cc1cccc(/C=N/n2c(-c3ccncc3)n[nH]c2=S)c1 | inactive: 1.52%
COc1ccc(-c2noc(CCCC(=O)NCc3ccco3)n2)cc1OC | inactive: 0.0719%
N#Cc1c(N2CCCC2)ccc(Br)c1Cl | inconclusive: 31.7%
O=C1NC2=C(CCc3ccccc32)C(c2ccccc2)N1 (stereo not drawn) | inactive: 2.2%
CCN(CC)c1ccc(C(=O)N/N=C/c2ccc(N3CCOCC3)cc2)cc1 | inconclusive: 30.3%
Cc1cc(NC(=O)C2CCC2)n(-c2ccccn2)n1 | inactive: 1.52%
C=CCn1cc(C(=O)NCc2ccc3c(c2)OCO3)c(=O)c2cc(S(=O)(=O)N(CC)CC)ccc21 | inconclusive: 35.2%
COc1ccc(OC(=O)C2CC(=O)N(c3ccc(C)cc3)C2)cc1 (stereo not drawn) | inconclusive: 31.9%
CCc1ccc(-c2cc(C)no2)cc1S(=O)(=O)N1CCOc2ccccc21 | inconclusive: 40.4%
O=C(NCc1ccco1)c1ccc2c(=O)n(-c3ccccc3)c(=O)n(Cc3cccc(F)c3)c2c1 | inconclusive: 39.3%
CCCCOc1ccc(Cl)cc1CSc1nnc(CC)n1N | inconclusive: 62.2%
O=C(CSCc1nc2ccccc2[nH]1)N1CCN(c2cccc(Cl)c2)CC1 | inconclusive: 71.1%

Structure (SMILES) | activation
CN(CC(=O)NCCc1ccc(F)cc1)Cc1cccc(Cl)c1 | inconclusive: 36.8%
Cc1c(C(=O)NCc2cccnc2)oc2ccc(S(=O)(=O)N3CCCCCC3)cc12 | inconclusive: 33.6%
COc1ccc(CC(=O)NNc2ncnc3c2cnn3-c2ccc(C)cc2)cc1OC | inactive: -2.92%
CCn1nnnc1NCc1ccc(OCc2ccc(F)cc2Cl)c(OC)c1 | inconclusive: 31.2%
CCOC(=O)C1=C(C)N=C2SC(C)C(=O)N2C1/C=C/c1ccccc1OC (stereo not drawn) | inconclusive: 31.4%
CCOc1ccc2nc(NCCCNC(=O)c3cc(OC)c(OC)c(OC)c3)c(C#N)cc2c1 | inactive: -3.85%
CCCOc1c(Br)cc(C2C3=C(CCCC3=O)N(CC)C3=C2C(=O)CCC3)cc1OC | inconclusive: 50%
COc1cccc(NC(=O)CN(C)C(=O)c2ccccc2CCc2ccccc2)c1 | inconclusive: 40.8%
CCC1CN(C(=O)NCc2ccc(F)cc2)c2cc(Cl)ccc2O1 (stereo not drawn) | inconclusive: 34.2%
O=C(CSc1nc2ccc([N+](=O)[O-])cc2[nH]1)NCCc1ccccc1 | inconclusive: 41.6%
Cc1ccc(C(=O)Nc2ccc3c4c(cccc24)CC3)cc1[N+](=O)[O-] | inconclusive: 47.5%
O=C(/C=C/c1ccc(Cl)cc1)NCCc1ccccc1 | inconclusive: 36.7%
CC(=O)c1cccc(NC(=O)c2sc3nc4n(c(=O)c3c2C)CCCCC4)c1 | inconclusive: 76.8%
CCc1ccc(/C=N/NC(=O)c2cc(C)on2)s1 | inconclusive: 73.2%
CC(=O)c1c(C)[nH]c(C(=O)CN2C(=O)NC(C)(c3ccc(C)cc3)C2=O)c1C (stereo not drawn) | inactive: 2.9%
CCC(Oc1ccccc1)C(=O)NC1CCCCCC1 (stereo not drawn) | inconclusive: 36.8%
Cc1nnc(NC(=O)CSc2nnc(Cc3cccn3C)n2-c2ccccc2)s1 | inactive: -1.79%
O=C(/C(=N\Nc1ccc(Br)cc1)Sc1nnnn1-c1ccccc1)c1ccccc1 | inconclusive: 31.2%
CCOC(=O)c1sc2nccc(N(C)C)c2c1N=CNOCc1ccccc1 | inconclusive: 31.6%
Cc1cc(C)n(-c2ccn(Cc3ccc(Cl)cc3Cl)c(=O)n2)n1 | inconclusive: 39.2%

Structural class, those above with a Cl atom.
Structure (SMILES) | activation
CN(C)c1cc(-c2ccc(Cl)c(Cl)c2)oc(=O)c1Cl | inconclusive: 31.8%
N#Cc1c(N2CCCC2)ccc(Br)c1Cl | inconclusive: 31.7%
CCCCOc1ccc(Cl)cc1CSc1nnc(CC)n1N | inconclusive: 62.2%
O=C(CSCc1nc2ccccc2[nH]1)N1CCN(c2cccc(Cl)c2)CC1 | inconclusive: 71.1%
CN(CC(=O)NCCc1ccc(F)cc1)Cc1cccc(Cl)c1 | inconclusive: 36.8%
CCn1nnnc1NCc1ccc(OCc2ccc(F)cc2Cl)c(OC)c1 | inconclusive: 31.2%
CCC1CN(C(=O)NCc2ccc(F)cc2)c2cc(Cl)ccc2O1 (stereo not drawn) | inconclusive: 34.2%
O=C(/C=C/c1ccc(Cl)cc1)NCCc1ccccc1 | inconclusive: 36.7%
Cc1cc(C)n(-c2ccn(Cc3ccc(Cl)cc3Cl)c(=O)n2)n1 | inconclusive: 39.2%

Quoted at random: two entries already listed
Structure (SMILES) | activation
CCCOc1c(Br)cc(C2C3=C(CCCC3=O)N(CC)C3=C2C(=O)CCC3)cc1OC | inconclusive: 50%
CCOc1ccc2nc(NCCCNC(=O)c3cc(OC)c(OC)c(OC)c3)c(C#N)cc2c1 | inactive: -3.85%

The list goes on:

Structure (SMILES) | activation
CCOC(=O)C(=CN=C(N)Nc1nc2ccccc2o1)C(=O)OCC | inconclusive: 36.9%
COc1ccc(Cn2c(-c3ccc(OC)cc3)nc3ccccc32)cc1 | inactive: 23.7%
CC(=O)n1c2c(c3ccccc31)OC(N)=C(C#N)C2c1ccc(C(C)C)cc1 (stereo not drawn) | inconclusive: 36.6%
Cc1ccc(C2=NC(C)(C)N=C2SCC(=O)Nc2ccc(Cl)cc2)cc1 | inconclusive: 35.9%
COc1ccccc1CNC(=O)CCC(=O)Nc1nnc(C)s1 | inactive: -0.143%
COc1ccc(/C=N/NC(=O)c2cccnc2)cc1CN1CCCc2ccccc21 | inconclusive: 44.8%
O=C(Nc1cccnc1)c1ccc(COCC(F)(F)F)cc1 | inconclusive: 59.4%
O=C(NN=C1CCCCCC1)c1ccncc1 | inconclusive: 40.3%
CCCCSc1ncc(C(=O)OCC)c(N)n1 | inconclusive: 33.7%
CC1CCc2nc(NC(=O)C3COc4ccccc4O3)sc2C1 (stereo not drawn) | inconclusive: 40.5%
O=C(Cc1csc(N2CCOCC2)n1)N/N=C/c1ccc(O)c(O)c1O | inactive: 1.08%
CNC(=O)NC(=O)COC(=O)CCCSc1nc2ccccc2s1 | inconclusive: 34.2%
Cc1sc2ncnc(N3CCN(C(=O)c4ccco4)CC3)c2c1C | inconclusive: 31.6%
O=C(N/N=C/c1cc([N+](=O)[O-])ccc1O)c1ccc2c(c1)OCCO2 | inconclusive: 48%
N#CC(C#N)=NNc1ccc(S(=O)(=O)N2CCCCC2)cc1 | inactive: 0.411%
O=C(NCc1ccccc1)c1ccccc1OCC(=O)N1CCCCC1 | inconclusive: 43.6%
Cc1cc2c(cc(C(=O)NCCCN3CCOCC3)n2Cc2ccc(Cl)cc2)o1 | inactive: -3.19%
CC(NC(=O)CN(C)Cc1cccc(Cl)c1)c1ccccc1 (stereo not drawn) | inconclusive: 61.2%

— PubChem BioAssay AID540275 (National Center for Advancing Translational Sciences (NCATS), 2011)
